Cleaved PARP after 72 h of treatment

First drug in all entries: everolimus, 0.1 µM, CO[C@H]1C[C@@H]2CC[C@@H](C)[C@@](O)(O2)C(=O)C(=O)N2CCCC[C@H]2C(=O)O[C@H]([C@H](C)C[C@@H]2CC[C@@H](OCCO)[C@H](OC)C2)CC(=O)[C@H](C)/C=C(\C)[C@@H](O)[C@@H](OC)C(=O)[C@H](C)C[C@H](C)/C=C/C=C/C=C/1C

Drug key:
vorinostat: O=C(CCCCCCC(=O)Nc1ccccc1)NO at 0.4 µM
ruxolitinib: N#CC[C@H](C1CCCC1)n1cc(-c2ncnc3[nH]ccc23)cn1 at 5 µM
ENMD-2076: Cc1cc(Nc2cc(N3CCN(C)CC3)nc(/C=C/c3ccccc3)n2)n[nH]1 at 0.2 µM
selumetinib: Cn1cnc2c(F)c(Nc3ccc(Br)cc3Cl)c(C(=O)NOCCO)cc21 at 0.075 µM
nilotinib: Cc1cn(-c2cc(NC(=O)c3ccc(C)c(Nc4nccc(-c5cccnc5)n4)c3)cc(C(F)(F)F)c2)cn1 at 1 µM

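The test systems are human melanoma cell lines, treated with a pair of drugs for 72 h and then stained and imaged. The read-out is the fraction of cleaved-PARP-positive nuclei, in % of that fraction in the DMSO control; 200 means twice the control level of this apoptosis marker. Every drug was used at one fixed concentration, the higher of two screened. The file gives one value for each pair and line, without errors, so small differences may be noise. The marker varies much from line to line, for technical or biological reasons.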
This is part of the screen, not chosen by result.
A dash means that no value is listed here.

Cell line,ENMD-2076,ruxolitinib,vorinostat,nilotinib,selumetinib
A101D,97.3,75.6,181,71.3,216
COLO 792,318,443,260,249,177
MZ2-MEL,176,129,128,238,238
WM115,432,107,286,222,78.3
SK-MEL-30,214,177,224,31.5,343
A375,110,75.1,-,98.7,105
C32,398,115,72.5,166,161
LOX IMVI,35.0,150,89.0,957,129
COLO 800,189,79.0,168,138,78.2
G-361,295,240,165,93.9,240
WM3619,127,101,105,135,178
WM1745,108,111,69.7,141,117
UACC-257,46.6,218,210,21.8,58.8
SK-MEL-28,95.0,88.8,136,48.8,44.8
WM3526,598,120,109,307,318
WM1716,95.6,38.3,65.8,53.4,287
UACC-62,263,-,157,327,248
A2058,267,176,31.0,198,204
MEL-HO,77.0,80.7,87.8,121,71.8
LB2518-MEL,111,74.4,333,145,302
RVH-421,93.9,69.5,97.4,71.7,356
MeWo,127,84.6,83.9,57.5,89.7
COLO 829,151,130,238,93.5,133
RPMI-7951,123,246,82.8,103,104
WM451Lu,149,195,201,105,339
IST-MEL1,61.2,138,175,123,97.2
SK-MEL-2,76.9,172,247,111,272
IPC-298,225,91.3,123,185,372
SK-MEL-5,273,136,124,310,570

From a melanoma drug combination screen (doi:10.1371/journal.pone.0140310); values rounded.